No constants are given. Whether binding was seen depends on the method and setting. In cells and extracts the contact can be indirect. Some binding calls cover weakened binding; strength is not graded here. Sequences can lack the tags named with a protein.
Each molecule was assayed against T1, GST-HsOxs1 (human) (UniProt Q96CT7) (assay: pull-down; GST fusion from E. coli lysate bound to MagneGST beads (4°C, 4 h) and washed four times; beads incubated overnight at 4°C with E. coli lysate expressing the His fusion; wash buffer 25 mM Tris-HCl pH 7.2, 150 mM NaCl, 1 mM EDTA, 1 mM EGTA, 1% Triton X-100, 0.5% Nonidet P-40, 1 mM DTT; western blot with anti-His; only the target purified).
T1 sequence: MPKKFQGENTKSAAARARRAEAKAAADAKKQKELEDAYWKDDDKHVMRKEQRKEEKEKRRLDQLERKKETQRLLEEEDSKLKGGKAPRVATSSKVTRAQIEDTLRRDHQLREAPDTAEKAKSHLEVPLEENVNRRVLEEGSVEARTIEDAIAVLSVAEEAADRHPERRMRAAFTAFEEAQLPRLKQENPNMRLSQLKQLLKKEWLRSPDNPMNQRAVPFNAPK

Chains of the proteins cited; added tags and fusions are not shown.
UniProt P05412: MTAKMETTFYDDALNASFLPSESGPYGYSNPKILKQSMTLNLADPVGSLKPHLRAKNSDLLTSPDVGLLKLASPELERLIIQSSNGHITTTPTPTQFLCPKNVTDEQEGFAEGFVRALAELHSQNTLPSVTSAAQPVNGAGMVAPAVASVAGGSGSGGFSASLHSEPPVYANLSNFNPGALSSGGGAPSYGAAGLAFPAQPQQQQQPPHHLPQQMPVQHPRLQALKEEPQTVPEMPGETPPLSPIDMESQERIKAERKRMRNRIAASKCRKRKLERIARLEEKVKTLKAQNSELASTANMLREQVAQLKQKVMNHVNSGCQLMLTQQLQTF

Row | Molecule | binding
1 | His-HscJun (from UniProt P05412 1-331) | binds
2 | His-Pap1 (protein, UniProt Q01663 1-552) MSGQTETLSSTSNIPIAKAEPEQSADFSASHKKRGPVSDRSSRRTSSEEVDLMPNVDDEVDGDVKPKKIGRKNSDQEPSSKRKAQNRAAQRAFRKRKEDHLKALETQVVTLKELHSSTTLENDQLRQKVRQLEEELRILKDGSFTFEMSLPHRNPSLSSLPTTGFSSNFAHMKDGISPQSNLHLSPNSIEKPNMHQNVLHNDRSADNLNHRYQVPPTLVDSNSAQGTLSPETPSSSDSPSNLYLNYPKRKSITHLHHDCSALSNGENGEDVADGKQFCQKLSTACGSIACSMLTKTTPHRASVDILSNLHESTVSPPMADESVQRSSEVSKSIPNVELSLNVNQQFVSPFGGTDSFPLPTDTGLDSLFEPDSAIENSHLKNVVMEPELFQAWREPAESLDKEFFNDEGEIDDVFHNYFHNSNENGDLITNSLHGLDFLENANESFPEQMYPFIKHNKDYISNHPDEVPPDGLPQKGKHDTSSQMPSENEIVPAKERAYLSCPKVWSKIINHPRFESFDIDDLCSKLKNKAKCSSSGVLLDERDVEAALNQFN | binds
3 | His-AtbZIP10 (protein, UniProt O22763 1-411) MNSIFSIDDFSDPFWETPPIPLNPDSSKPVTADEVSQSQPEWTFEMFLEEISSSAVSSEPLGNNNNAIVGVSSAQSLPSVSGQNDFEDDSRFRDRDSGNLDCAAPMTTKTVIVDSDDYRRVLKNKLETECATVVSLRVGSVKPEDSTSSPETQLQPVQSSPLTQGELGVTSSLPAEVKKTGVSMKQVTSGSSREYSDDEDLDEENETTGSLKPEDVKKSRRMLSNRESARRSRRRKQEQTSDLETQVNDLKGEHSSLLKQLSNMNHKYDEAAVGNRILKADIETLRAKVKMAEETVKRVTGMNPMLLGRSSGHNNNNRMPITGNNRMDSSSIIPAYQPHSNLNHMSNQNIGIPTILPPRLGNNFAAPPSQTSSPLQRIRNGQNHHVTPSANPYGWNTEPQNDSAWPKKCVD | binds

— paper PMC5224502
